# Measurements as given in PubChem BioAssay AID1671190 (National Center for Advancing Translational Sciences (NCATS), 2021).
# By UniProt entry, the sequences of proteins in these tests, tags left out. Where a name states a change or a piece, a line headed by the entry shows the natural chain unless it says otherwise.
# UniProt P18054: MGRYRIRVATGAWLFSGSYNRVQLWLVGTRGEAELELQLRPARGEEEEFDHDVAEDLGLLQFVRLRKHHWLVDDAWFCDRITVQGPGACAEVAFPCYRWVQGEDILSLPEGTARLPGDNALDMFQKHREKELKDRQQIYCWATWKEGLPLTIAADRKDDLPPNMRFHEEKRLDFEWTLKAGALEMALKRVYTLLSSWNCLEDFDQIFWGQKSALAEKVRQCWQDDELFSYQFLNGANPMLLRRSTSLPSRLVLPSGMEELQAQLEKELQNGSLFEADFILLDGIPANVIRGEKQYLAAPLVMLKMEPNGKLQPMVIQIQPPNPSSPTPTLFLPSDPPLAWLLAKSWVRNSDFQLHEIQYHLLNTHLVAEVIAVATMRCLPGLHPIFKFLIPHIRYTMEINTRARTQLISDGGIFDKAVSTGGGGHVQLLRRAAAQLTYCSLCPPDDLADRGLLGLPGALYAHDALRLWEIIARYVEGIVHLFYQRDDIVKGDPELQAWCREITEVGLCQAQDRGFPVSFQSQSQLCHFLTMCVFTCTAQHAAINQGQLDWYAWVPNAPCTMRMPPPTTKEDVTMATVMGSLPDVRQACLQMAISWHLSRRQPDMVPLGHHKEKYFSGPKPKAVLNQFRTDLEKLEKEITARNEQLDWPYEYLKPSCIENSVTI
# Several values for one entry are separate records, joined by “and”; a condition that tells them apart may be missing. Equal entries are not always repeated. Out of some 580,000 compounds screened, about 6,100 (1.1%) were called active. This list was built around the results that the source calls inconclusive (neither active nor inactive); the mix of calls is not that of the screen. Calls come from the whole dose curve; as a rule, active = well fitted inhibition curve with a large enough effect; inconclusive = small, poorly fitted or top-dose-only effect, or another doubt; inactive = no such curve, though single readings can be large or run the other way. Potencies beside an inconclusive call are fits to weak or partial responses and may not hold up.
# Target: Polyunsaturated fatty acid lipoxygenase ALOX12 (Homo sapiens) (UniProt P18054)
# Assay: Primary qHTS assay for inhibitors of human arachidonate 12S-lipoxygenase (ALOX12): Round 2
# Settings: purified 12hLO, xylenol orange hydroperoxide absorbance; activity change, negative = inhibition: at 108 µM (top of the series) unless noted
# Method in brief: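 Purified human 12hLO (150 nM final) in 25 mM Hepes, 0.01% Triton X-100, pH 7.0 was preincubated 15 min at room temperature with compound. Then 40 uM arachidonic acid was added, 30 min. Hydroperoxide was read by Fe-XO absorbance ratio 573/405 nm.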
# % is set by controls: 0 for no effect and ±100 for the full control effect; potency is the fitted concentration of half-maximal effect.
SMILES,"activity change, negative = inhibition",Potency
COC(=O)C1=C(C)Nc2nc3ccccc3n2C1c1ccc(O)c(OC)c1 (centres undefined),inactive: 25.1%,
CCCCOc1ccccc1C(=O)Nc1ccc(OCC)c2ncccc12,inactive: -10.2%,
CCNC(=S)N(CCN(C)C)Cc1cc2cc(OCC)ccc2[nH]c1=O,inactive: -8.84%,
Cc1occc1-c1nnc(SCC(=O)Nc2cccc(C(F)(F)F)c2)o1,inactive: -16.2%,
CC(C)N1CCN(Cc2ccc(-c3ccccc3)cc2)CC1CCO (centres undefined),inactive: -22%,
Cc1cc(-c2ccc(C)c(S(=O)(=O)NC3CCCCC3)c2)on1,,"inconclusive: 100 µM [inhibitor, partial curve, poor fit]"
CC1Cc2[nH]c(=S)[nH]c(=O)c2C(C(C)C)O1 (centres undefined),,"inconclusive: 79.4 µM [inhibitor, partial curve, poor fit]"
COc1cc(=O)n(-c2ccccc2C)nc1C(=O)Nc1cc(Cl)ccc1C,inactive: -0.0912%,
O=C(NNC(=S)NC1CC2C=CC1C2)c1cccnc1 (centres undefined),inactive: 0%,
CCN(CC)c1ccc(C(=S)N(C)C)cc1,,"inconclusive: 50.1 µM [inhibitor, partial curve, poor fit]"
Cc1ccc(-n2c(=S)sc3c(=O)n(-c4ccccc4C)c(SCC(=O)O)nc32)cc1C,,"inconclusive: 44.7 µM [inhibitor, partial curve, poor fit]"
Cc1ccc(-c2ccc(CN3C(CC(C)C)C(=O)N(Cc4cn(CC5CCCCC5)nn4)CCS3(=O)=O)cc2)cc1 (centres undefined),inconclusive: -35.6% [inhibitor],
O=C(Cn1c(=O)n(Cc2cccs2)c(=O)c2cccnc21)Nc1ccc(F)cc1,,"inconclusive: 6.31 µM [inhibitor, partial curve, poor fit]"
COc1ccccc1/C=C1/SC(=S)N(C(C)C(=O)NC2C=CS(=O)(=O)C2)C1=O (centres undefined),,"inconclusive: 39.8 µM [inhibitor, partial curve, poor fit]"
Cc1nc(N)sc1N=Nc1ccc(Br)cc1,,"inconclusive: 44.7 µM [inhibitor, partial curve]"
CCOc1ccc2c(=O)c(Oc3ccccc3OCC)c(C)oc2c1,inactive: -1.39%,
Cc1oc(-c2ccc(C(=O)NCc3ccc(Cl)cc3)cc2)nc1CS(=O)(=O)c1ccccc1,,"inconclusive: 56.2 µM [inhibitor, single point]"
CCc1ccccc1OCc1nnc(SCc2cc(=O)c3ccccc3[nH]2)n1C,,"inconclusive: 31.6 µM [inhibitor, partial curve]"
CCOc1ccc(NC(=O)CCC(=O)c2ccc(Br)cc2)cc1,inactive: -65.7%,
Cc1cccc(NC(=O)CCc2ncc(-c3ccc(F)cc3)o2)c1C,,"inconclusive: 2.51 µM [inhibitor, full curve, poor fit]"
CN1C[C@@H](NC(=O)c2ccc3c(c2)OCO3)C[C@H]1c1nc(-c2ccc(Cl)cc2)no1,,"inconclusive: 22.4 µM [inhibitor, full curve, poor fit]"
Cc1ccc(S(=O)(=O)CCC(=O)OCC(=O)Nc2sccc2C#N)cc1,,"inconclusive: 44.7 µM [inhibitor, partial curve, poor fit]"
CCOc1ccc(-c2ncnn2-c2sc3c(c2C#N)CCCCC3)cc1,,"inconclusive: 79.4 µM [inhibitor, partial curve, poor fit]"

SMILES,"activity change, negative = inhibition",Potency
COc1ccc(NS(=O)(=O)c2ccc3oc(SC4CCOC4=O)nc3c2)cc1 (centres undefined),,"inconclusive: 100 µM [inhibitor, single point]"
O=c1[nH]cnc2ncc(-c3ccc(O)cc3)nc12,,"inconclusive: 44.7 µM [inhibitor, partial curve, poor fit]"
COc1ccc([C@H]2CC(=O)C[C@@H](CCn3cc(-c4ccccc4)nn3)O2)cc1,,active: 10 µM
CCOc1cc(NC(=S)NC)c(OCC)cc1NC(=O)c1ccc(OC)cc1,,"inconclusive: 1.26 µM [inhibitor, full curve, poor fit]"
CCOC(=O)c1ccc(NS(=O)(=O)c2ccc(-c3cc(C)no3)cc2)cc1,inactive: -18.7%,
Cc1ccc(C)c(NC(=O)c2cc(S(=O)(=O)N3CCCc4ccccc43)ccc2F)c1,,"inconclusive: 126 µM [inhibitor, single point]"
CC(C)c1ccc(N)c(S(=O)(=O)O)c1,,"inconclusive: 35.5 µM [inhibitor, single point]"
CCCCC(=O)NNC(=S)NC(=O)c1ccc([N+](=O)[O-])cc1,,"inconclusive: 44.7 µM [inhibitor, partial curve, poor fit]"
COc1ccc(S(=O)(=O)NC[C@H]2Cn3c(-c4ccc(F)cc4)cnc3CO2)cc1,,"inconclusive: 89.1 µM [inhibitor, partial curve, poor fit]"
O=C(c1ccc(COc2ccccc2[N+](=O)[O-])o1)N1CCCCC1,inconclusive: -31.1% [inhibitor],
O=C(Cn1cnc2ccccc2c1=O)NCCC(=O)N1CCN(c2ccccc2)CC1,,"inconclusive: 79.4 µM [inhibitor, partial curve, poor fit]"
CCOC(=O)C1=CCN(S(=O)(=O)c2ccc(Cl)cc2)C1c1cccc(Cl)c1 (centres undefined),,"inconclusive: 0.316 µM [inhibitor, full curve, poor fit]"
Oc1ccc2ccccc2c1CN1CCOCC1,,active: 7.08 µM
O=C(Nc1cccc2nsnc12)c1ccc(-c2ccc(Br)cc2)o1,,active: 35.5 µM
O=C1NC(=NC2CCCC2)C2(CCCN(CC3CCCCC3)C2)N1c1cc(F)cc(F)c1 (centres undefined),,"inconclusive: 63.1 µM [inhibitor, partial curve, poor fit]"
O=C(Nc1ccon1)c1cc(-c2ccccc2)nc2ccccc12,inactive: -2.89%,
CCN(CC)CCNC(=O)c1cc(-c2ccco2)nc2ccccc12,,"inconclusive: 44.7 µM [inhibitor, partial curve] and inconclusive: 126 µM [inhibitor, partial curve, poor fit]"
CNc1c(NS(=O)(=O)c2c(C)noc2C)c(=O)oc2ccccc12,inconclusive: -30.6% [inhibitor],
COCCCNc1nc(=S)[nH]c2cc(OC)c(OC)cc12,,"inconclusive: 44.7 µM [inhibitor, partial curve, poor fit]"
O=C(CSc1nc2[nH]ncc2c(=O)[nH]1)Nc1ccccc1F,inactive: -17.8%,
CC(C)=CCc1c(-c2ccc(O)cc2O)oc2cc3c(c(O)c2c1=O)C=CC(C)(C)O3,,"inconclusive: 126 µM [inhibitor, single point]"
Cc1ccc(C(=O)N2CCC(c3nc4c(nnn4Cc4ccc5c(c4)OCO5)c(=O)[nH]3)CC2)cc1,,"inconclusive: 31.6 µM [inhibitor, partial curve, poor fit]"
CSc1ccccc1NC(=O)c1cnc2scc(C)n2c1=O,,"inconclusive: 100 µM [inhibitor, single point]"

SMILES,"activity change, negative = inhibition",Potency
CC(=O)OC[C@@H]1CN(Cc2ccccc2)C[C@H](n2cnc3c(NC(C)C)ncnc32)O1,inactive: -2.4%,
Cc1nc2cc(NC(C)C(=O)Nc3ccc(C#N)cc3)ccc2o1 (centres undefined),inactive: -13.8%,
C=C1c2cccc(O)c2C(O)=C2C(=O)[C@@]3(O)C(O)=C(C(N)=O)C(=O)[C@@H](N(C)C)[C@@H]3[C@@H](O)[C@H]12,,"inconclusive: 1.22 µM [inhibitor, full curve, poor fit]"
Cc1nnc(NC(=O)CSc2nnc3c(n2)[nH]c2ccc(Br)cc23)s1,,"inconclusive: 100 µM [inhibitor, partial curve, poor fit]"
COC(CNC(=O)CNC(=O)OCc1ccccc1)c1ccccc1 (centres undefined),inactive: 16.2%,
CCCCOc1cccc(C(=O)Nc2cccc(-c3nc4ncccc4o3)c2C)c1,inactive: -13.4%,
C[C@H](C(=O)N1CCCC1)C1CC[C@@]2(C)Cc3sc(NC(=O)C4CC4)nc3[C@@H](C)[C@@H]2[C@H]1O (some centres undefined),inactive: -1.28%,
CCOC(=O)C1CCN(C(=O)CSc2nnc(-c3ccc(Cl)cc3)n2N)CC1,inactive: -21.7%,
Fc1ccccc1COc1ccc(Br)cc1CNCc1cccnc1,,"inconclusive: 8.91 µM [inhibitor, partial curve, poor fit]"
CCOc1ccc(C(C)NC(=O)OC)cc1 (centres undefined),,"inconclusive: 4.47 µM [inhibitor, full curve, poor fit]"
CC(=O)c1ccc(N2CCN(c3ccnc4cc(Cl)ccc34)CC2)cc1,inactive: -19.6%,
COc1cc(CNCCCN2CCOCC2)c(Br)cc1OCC(=O)Nc1ccccc1C,inactive: 4.16%,
COc1ccc(NCC(=O)N/N=C(\C)c2cc3ccccc3o2)cc1,inactive: -8.88%,
CCCN(Cc1nnc(-c2ccccc2Cl)o1)C(=O)c1ccc(C#N)cc1,,"inconclusive: 39.8 µM [inhibitor, partial curve, poor fit]"
Cc1ccc(/C=c2\sc3n(c2=O)CN(c2cccc(Br)c2)CN=3)o1,inactive: 0%,
CSc1ncc(C(=O)N2CCN(c3cc(C)ccc3C)CC2)c(C)n1,,"inconclusive: 158 µM [inhibitor, partial curve, poor fit]"
COc1ccc(CCN(C(=O)c2ccco2)C(C(=O)NC2CCCC2)c2ccncc2)cc1OC (centres undefined),inactive: -12.1%,
COc1ccc(CCNC(=O)CCn2cccc2)cc1OC,inactive: 0%,
O=C(Cc1ccc2c(c1)CCCC2)NC1CCCCCC1,inactive: 76.7%,
Cc1ccc(-n2c(Cc3cccn3C)nnc2SCC(=O)Nc2ccc3c(c2)OCO3)cc1,inactive: 6.92%,
CCCCC1S/C(=N/N=C/c2ccc(OC)cc2)N(Cc2ccc(OC)cc2)C1=O (centres undefined),inactive: 0%,
COC(=O)Cc1ccc(NC(=S)N2CCC(Cc3ccccc3)CC2)cc1,,"inconclusive: 44.7 µM [inhibitor, partial curve, poor fit]"
CCOC(=O)C(N)c1ccccc1 (centres undefined),,"inconclusive: 35.5 µM [inhibitor, partial curve]"

# Part of the list above in order of count of non-hydrogen atoms, high to low.
SMILES,"activity change, negative = inhibition",Potency
CC(=O)OC[C@@H]1CN(Cc2ccccc2)C[C@H](n2cnc3c(NC(C)C)ncnc32)O1,inactive: -2.4%,
CCCCOc1cccc(C(=O)Nc2cccc(-c3nc4ncccc4o3)c2C)c1,inactive: -13.4%,
CC(=O)c1ccc(N2CCN(c3ccnc4cc(Cl)ccc34)CC2)cc1,inactive: -19.6%,
Cc1nnc(NC(=O)CSc2nnc3c(n2)[nH]c2ccc(Br)cc23)s1,,"inconclusive: 100 µM [inhibitor, partial curve, poor fit]"
